Consider 3 molecules from publication PMC9851907, “A single 2′-O-methylation of ribosomal RNA gates assembly of a functional ribosome” (Nature Structural & Molecular Biology, 2022).

The chains behind the UniProt entries cited, without tags or fusion partners.
UniProt P53742: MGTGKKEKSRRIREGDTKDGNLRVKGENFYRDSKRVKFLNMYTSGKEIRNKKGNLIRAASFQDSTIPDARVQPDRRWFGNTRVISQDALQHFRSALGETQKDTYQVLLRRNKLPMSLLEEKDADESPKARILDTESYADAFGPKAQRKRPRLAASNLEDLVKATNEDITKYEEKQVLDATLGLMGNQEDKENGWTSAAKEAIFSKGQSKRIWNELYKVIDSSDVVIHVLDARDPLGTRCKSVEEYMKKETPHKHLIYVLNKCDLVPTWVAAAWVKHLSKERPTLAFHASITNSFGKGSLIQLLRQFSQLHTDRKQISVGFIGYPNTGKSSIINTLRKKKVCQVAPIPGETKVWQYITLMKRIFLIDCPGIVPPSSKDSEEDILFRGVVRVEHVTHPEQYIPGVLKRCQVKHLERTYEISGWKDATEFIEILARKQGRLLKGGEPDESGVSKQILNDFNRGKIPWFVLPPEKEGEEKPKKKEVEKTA

To fix the notation:
B1: Sda1 (protein, UniProt P53313 1-767)
chain: MGRRSRAAMLPTNIILLQNLVKRDPESYQEEFLQQYAHYESLRDIFMLNGLAGGDSAAATNGLDVGNGSSTMAGTNGTTMSTSTSQLIELVGFVSQVCSCFPRETANFPSELKQLLLEHHKSLPFELKEKILSCLTMLRNKDVITAEELIQSLFPLLVAYSSHGNSLGVNSHAKELRKIIYTNLISLLKSCNTNGKNQKLNKSTQAVCFNLLDQPDSQGIWATKLTRELWRRGIWDDSRTVEIMTQAALHQDVKIVMSGVMFFLDADREREENFEENSEDEDGFDLDALRHKMQVNKKTGRRGKKLENAIKTVKKKKKNGPGAPQGYLNFSAIHLLRDPQGFAEKLFKEHLSGKTKNKFDMEQKISLMQLLSRLIGTHKLIVLGIYTFFLKYLTPKQRDVTRIMSACAQACHDLVPPEVINVMVRKIADEFVSDGVANEVAAAGINTIREICSRAPLAIDEILLQDLVEYKGSKAKGVNMAAKSLIALYRDVAPEMLKKKDRGKNAAMEVQEAKKGGKDSKRPQFGADNSVQGIAGIELLAKWKKEHGEESENEDADANWEVDVDSEEDDVDGEWVTMDSDKEYDVDMEDSDDEKDNAKGKESDSDLELSDDDDEKEVKDEQEDADIDPEAAFREIASTRILTPADFAKLQELRNEESVAKIMGIHKQDKREELVDASTLTGPIKYKQSREERLQKVLEGREGRDKFGSRRGKRDNMRSTTNREKERRKNFVMSIHKRSVRGKQKMSLRDKQKVLRAHITKQKKKGY
B2: Arx1 (protein, UniProt Q03862 1-593)
chain: MALAISHEDTQILLKDKNILQESVLNKYRTAGQIAQTALKYVTSLINDSYHSKTTQRQLTVPELCLLTDSFILTRLEQYYKNKVNERGIAIPTTIDIDQISGGWCPEIDDTQNLLNWNKGKDSTFASSVTGTLRPGDLVKITLGVHIDGYTSEVSHTMVIYPVDETKPILQPTGPLLGGKADAVAAAHIAMETVVALLACALTPEKLPASLGGTSSGITGQLIRTIVDTIARSYNCGVVPGSRVRRIRRFLAGQNEGIVAEREYKGVVWTESHQEADLLSNTDAKDLTVVDRGQSTPFTNVSAIPSDDFVVQSGEVYLIDLKMASLEHCTKKGLVTLETVDSYTGKSHKAGELIARPGAYVRDFAQTHILKLKTSRQLLTKIDKQGVYPFKLSHLSSNFPFVHENEEELQSLKKDLKSFRLGMSEISNNYLCVESPIQIARWVPWDHILKATNPNGNLSYDATSTLTLPGHELPLPKLGVSAIKLKSLMNSTKESISLPVARECNTIVLCDSSVSTTDRPELLRLTGGSKTCQPSWIHSQHELNPQDSIVQGIFQLATLAKDKRFGLLLKETQPMKQKSVETSNGGVEETMKM
B3: Bud20 (protein, UniProt Q08004 1-166)
chain: MGRYSVKRYKTKRRTRDLDLIYNDLSTKESVQKLLNQPLDETKPGLGQHYCIHCAKYMETAIALKTHLKGKVHKRRVKELRGVPYTQEVSDAAAGYNLNKFLNRVQEITQSVGPEKESNEALLKEHLDSTLANVKTTEPTLPWAAADAEANTAAVTEAESTASAST

No constants are given. Whether binding was seen depends on the method and setting. In cells and extracts the contact can be indirect. These calls come from enrichment with a bait or labelling near it, and not all partners need be listed.

The assay deals with Nog2-3xFLAG-6xHis (S. cerevisiae (endogenous locus in BY4741-derived strain AJY4427)) (UniProt P53742). As to the kind of experiment: affinity purification with mass spectrometry; Nog2-3xFLAG-bound pre-60S particles immunopurified on anti-FLAG agarose from lysates of yeast expressing WT SPB1 or spb1-D52A (endogenous Spb1 depleted); 50 mM Tris pH 7.6, 100 mM NaCl, 5 mM MgCl2, 0-4 °C; eluted with 3xFLAG peptide; semiquantitative MS-MS of gel samples; partners are together within a ribonucleoprotein particle.
For B1, the binding result is “binds”.
The entry for B2 is “binds”; for B3 it is “binds”.
